This passage reports binding results from paper PMC7018950.

No constants are given. Whether binding was seen depends on the method and setting. Binding calls can cover weak binding; strength is not graded here. For some assays here: Where a sequence is shown, tags or fusion partners need not be part of it. For some assays here: Binding seen in cells or lysates may run through a third protein.

The target in assay [1] is T1, AtCHS (GAL4 two-hybrid fusion) (Arabidopsis thaliana) (UniProt P13114).
T1 sequence: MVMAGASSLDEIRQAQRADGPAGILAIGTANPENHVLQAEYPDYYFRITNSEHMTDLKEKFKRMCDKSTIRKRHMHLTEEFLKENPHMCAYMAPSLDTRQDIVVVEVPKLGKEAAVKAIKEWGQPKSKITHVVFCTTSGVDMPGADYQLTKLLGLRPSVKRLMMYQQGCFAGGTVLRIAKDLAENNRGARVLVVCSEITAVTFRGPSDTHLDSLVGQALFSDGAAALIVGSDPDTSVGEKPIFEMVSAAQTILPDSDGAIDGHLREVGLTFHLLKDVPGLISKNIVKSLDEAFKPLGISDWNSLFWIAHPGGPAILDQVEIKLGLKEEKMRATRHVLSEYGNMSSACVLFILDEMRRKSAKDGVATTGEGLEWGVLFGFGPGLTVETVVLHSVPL
As to the kind of experiment: two-hybrid; GAL4-based (Matchmaker Gold), S. cerevisiae Y2H Gold; fusions with the GAL4 activation and DNA-binding domains; growth on -WL, -WLH and -WLHAde.

For assay [2], the target named is T2, GmCHS-7-CVen210 (Glycine max) (UniProt P30081).
T2 sequence: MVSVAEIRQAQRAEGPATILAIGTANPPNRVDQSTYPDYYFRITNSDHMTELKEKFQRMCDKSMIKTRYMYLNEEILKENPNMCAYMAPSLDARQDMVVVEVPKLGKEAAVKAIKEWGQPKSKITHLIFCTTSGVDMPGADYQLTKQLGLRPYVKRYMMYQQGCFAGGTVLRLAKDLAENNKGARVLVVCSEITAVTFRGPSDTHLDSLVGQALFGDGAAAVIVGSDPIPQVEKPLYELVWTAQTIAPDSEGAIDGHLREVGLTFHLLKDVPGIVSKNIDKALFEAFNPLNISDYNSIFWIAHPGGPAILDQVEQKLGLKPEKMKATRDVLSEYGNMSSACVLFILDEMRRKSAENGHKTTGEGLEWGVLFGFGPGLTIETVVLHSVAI
In words: split reporter; BiFC with NmVen210 and CVen210 fusions (pDOE-05) co-expressed in Nicotiana benthamiana leaf cells; CVen210 alone as control.

Assay [3] has as its target T3, GmCHS-1-CVen210 (Glycine max) (UniProt P24826).
T3 sequence: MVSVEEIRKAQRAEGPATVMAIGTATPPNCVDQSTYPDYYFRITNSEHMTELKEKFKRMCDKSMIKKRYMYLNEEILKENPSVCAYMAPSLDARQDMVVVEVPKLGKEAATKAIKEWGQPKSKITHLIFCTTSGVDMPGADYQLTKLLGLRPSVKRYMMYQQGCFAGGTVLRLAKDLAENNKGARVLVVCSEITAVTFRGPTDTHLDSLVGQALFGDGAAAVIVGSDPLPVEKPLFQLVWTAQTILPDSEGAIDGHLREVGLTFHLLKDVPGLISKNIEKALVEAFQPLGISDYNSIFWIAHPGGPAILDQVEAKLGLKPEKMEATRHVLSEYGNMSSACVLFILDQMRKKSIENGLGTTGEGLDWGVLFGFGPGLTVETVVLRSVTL
Described as above.

Assay [4] deals with T4, AmCHS-NmVen210 (Antirrhinum majus) (UniProt P06515).
T4 sequence: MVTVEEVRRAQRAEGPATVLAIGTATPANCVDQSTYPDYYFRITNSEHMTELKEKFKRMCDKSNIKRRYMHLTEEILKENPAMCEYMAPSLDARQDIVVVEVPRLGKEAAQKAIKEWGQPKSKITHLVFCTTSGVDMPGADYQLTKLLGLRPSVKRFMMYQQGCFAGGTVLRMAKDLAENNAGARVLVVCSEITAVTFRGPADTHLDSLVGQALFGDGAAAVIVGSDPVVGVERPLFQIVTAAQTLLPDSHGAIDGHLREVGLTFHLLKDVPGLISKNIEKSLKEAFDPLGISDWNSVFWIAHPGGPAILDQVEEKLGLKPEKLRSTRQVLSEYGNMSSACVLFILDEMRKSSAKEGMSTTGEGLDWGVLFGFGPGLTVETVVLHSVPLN
The assay is described as above.

The target in assay [5] is T5, AmCHS (BiFC fusion) (Antirrhinum majus (snapdragon)) (UniProt P06515).
T5 sequence: T4 sequence
In words: split reporter; BiFC in Nicotiana benthamiana leaf cells; NmVen210 and CVen210 fusions from pDOE-05, agroinfiltration, 25 °C for 2 days, confocal microscopy.

In assay [6] the target is T6, AmCHS (GAL4 two-hybrid fusion) (Antirrhinum majus (snapdragon)) (UniProt P06515).
T6 sequence: T4 sequence
In words: two-hybrid; GAL4-based (Matchmaker Gold), S. cerevisiae Y2H Gold; fusions with the GAL4 activation and DNA-binding domains; growth on -WL, -WLH and -WLHAde.

Assay [7] addresses T7, His6-tagged snapdragon chalcone synthase (His6-AmCHS) (Antirrhinum majus) (UniProt P06515).
T7 sequence: T4 sequence
In words: cross-linking; His6-AmCHIL (10 uM) and His6-AmCHS (5 uM) with BS3 (4 mM), pH 7.5, 5 min; SDS-PAGE, silver staining, immunoblots with anti-AmCHS and anti-AmCHIL IgG; both purified.

In assay [8] the target is T8, GmCHS-1 (GAL4 two-hybrid fusion) (Glycine max (soybean)) (UniProt P24826).
T8 sequence: T3 sequence
As to the kind of experiment: two-hybrid; GAL4-based (Matchmaker Gold), S. cerevisiae Y2H Gold; fusions with the GAL4 activation and DNA-binding domains; growth on -WL, -WLH and -WLHAde.

Assay [9] concerns the target T9, GmCHS-7 (GAL4 two-hybrid fusion) (Glycine max (soybean)) (UniProt P30081).
T9 sequence: T2 sequence
The assay is described as above.

“MpCHIL (GAL4 two-hybrid fusion) (Marchantia polymorpha)”: the binding result in [1] is “no binding”.

As to GmCHIL-NmVen210 (Glycine max), the binding entry in [2] and in assay [3] was “binds” each time.

On to AmCHIL-CVen210 (Antirrhinum majus), for which, in [4], the binding result was “binds”.

Regarding “AmCHIL (BiFC fusion) (Antirrhinum majus (snapdragon))”, the binding result in assay [5] was “binds”.

“AmCHIL (GAL4 two-hybrid fusion) (Antirrhinum majus (snapdragon))”: the binding entry in [6] is “binds”.

In the case of “PpCHIL (GAL4 two-hybrid fusion) (Physcomitrella patens)”, in assay [1], the binding result was “no binding”.

In the case of “InCHIL (GAL4 two-hybrid fusion) (Ipomoea nil (morning glory))”, in assay [1], the binding result was “binds weakly”.

In the case of “His6-tagged snapdragon chalcone isomerase-like protein (His6-AmCHIL) (Antirrhinum majus)”, the binding result in assay [7] is listed as “binds”.

Turning to “GmCHIL (GAL4 two-hybrid fusion) (Glycine max (soybean))”, the binding result in [8] and in assay [9] was “binds” throughout.
